## Results of single-concentration screens

The values are deposited in ChEMBL (CHEMBL3988442, “University of Dundee, Small-Polar-MMV Screening Library” (2021)).

Leishmania in macrophages: 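Cell assay of Leishmania donovani living inside macrophages; the read-out is not stated. Tested at 30 µM. The record gives no direction; compounds that gave an IC50 in retests scored well above the rest, so higher reads as stronger inhibition. Of about 69,000 compounds tested this way, about 1,000 (1.5%) reached 50% or more in at least one test.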
Toxoplasma: 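Assay of Toxoplasma gondii numbers, read through their beta-galactosidase reporter with a colour substrate. Tested at 10 µM. Higher reads as fewer parasites (inferred from which compounds were picked for retests). Of about 67,000 compounds tested this way, about 260 (0.38%) reached 50% or more in at least one test.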

Each number is a percent effect as filed. The record does not define 0% and 100%; most values in the screen are far below 50% and negative numbers occur (in some assays of this library far below -100). Compounds were drawn at random from those tested, without regard to their results.

{"compound": "CC(C)NC(=O)C1CN(C(=O)c2ccco2)CC12CCOCC2", "stereo": "centres unmarked", "Leishmania in macrophages": 18.74, "Toxoplasma": 4.415}
{"compound": "Cn1cncc1-c1nnc([C@H]2CCN(Cc3ccc(F)c(F)c3)C2)o1", "Leishmania in macrophages": 23.02, "Toxoplasma": 0.3718}
{"compound": "Cn1cc(-c2nc(C3CCN(S(C)(=O)=O)CC3)cc3c2ncn3C)cn1", "Leishmania in macrophages": -21.26, "Toxoplasma": -3.032}
{"compound": "COc1ccccc1-c1ncc(CN2CCCC[C@H](N(C)C)C2)s1", "Leishmania in macrophages": 36.23, "Toxoplasma": 24.75}
{"compound": "COc1coc(CN2CCCC3(CCC(=O)N(CC4CC4)C3)C2)cc1=O", "stereo": "centres unmarked", "Leishmania in macrophages": 25.58, "Toxoplasma": -26.92}
{"compound": "O=C(CSc1nnc[nH]1)NCc1sccc1Br", "Leishmania in macrophages": 31.93, "Toxoplasma": 6.222}
{"compound": "[H][C@@]12CCN(c3ncccn3)C[C@]1(C(=O)NCc1cnc(C)cn1)CCO2", "Leishmania in macrophages": 7.374, "Toxoplasma": -24.9}
{"compound": "O=C(N1CCCC1)N1CCC2(CC1)C(=O)N(CC1CC1)c1ccccc12", "Leishmania in macrophages": 6.435, "Toxoplasma": -27.11}
{"compound": "[H][C@]12OCCN(C(=O)C3CCOCC3)[C@@]1([H])CC[C@@H]2OCc1ccncc1", "Leishmania in macrophages": 15.14, "Toxoplasma": -8.821}
{"compound": "COc1cccnc1NC(=O)COc1c(C)cccc1C", "Leishmania in macrophages": 31.53, "Toxoplasma": 0.2528}
{"compound": "Cc1ccc2c(c1)C(=O)NCC1(CCN(C(=O)c3scnc3C)CC1)O2", "Leishmania in macrophages": 9.248, "Toxoplasma": -10.82}
{"compound": "CCNC(c1ccc(CC)cc1)c1cccnc1", "stereo": "centres unmarked", "Leishmania in macrophages": 21.84, "Toxoplasma": 8.82}
{"compound": "CN(C)C(=O)c1cccc(CNc2ccc(C#N)cn2)c1", "Leishmania in macrophages": -21.26, "Toxoplasma": -1.558}
{"compound": "O=C1NCCN(CC2CCCCC2)C1CC(=O)N1CCc2n[nH]cc2C1", "stereo": "centres unmarked", "Leishmania in macrophages": -24.22, "Toxoplasma": 10.79}
{"compound": "CCc1ccc(S(=O)(=O)Nc2ccncc2)s1", "Leishmania in macrophages": 20.18, "Toxoplasma": 13.93}
{"compound": "CC(C)c1noc(CCCC(=O)NC(C)c2ccccn2)n1", "stereo": "centres unmarked", "Leishmania in macrophages": 25.09, "Toxoplasma": -8.356}
{"compound": "COC(=O)c1ccoc1CN(C1CC1)C1CCS(=O)(=O)C1", "stereo": "centres unmarked", "Leishmania in macrophages": 29.81, "Toxoplasma": -4.244}
{"compound": "CCOCCCn1c(NC(=O)c2cnc(C)s2)nc2ccccc21", "Leishmania in macrophages": 22.8, "Toxoplasma": -13.93}
{"compound": "Cc1ccc(C)c(Oc2ccc(CNC(=O)C3CNC(=O)N3)cn2)c1", "stereo": "centres unmarked", "Leishmania in macrophages": -0.8533, "Toxoplasma": -3.428}
{"compound": "CC(NS(=O)(=O)N(C)C(C)C)C(=O)N(C)C", "stereo": "centres unmarked", "Leishmania in macrophages": -22.6, "Toxoplasma": -0.5643}
{"compound": "CCN(C)c1ncnc2c1CCN(C(=O)c1ccsc1)CC2.O=C(O)C(F)(F)F", "Leishmania in macrophages": -27.03, "Toxoplasma": 9.343}
{"compound": "O=C(CCc1cc2n(n1)CCN(CCCn1cccc1)C2)N1CCCC1", "Leishmania in macrophages": 12.03, "Toxoplasma": 0.7377}
{"compound": "O=C(c1cnccn1)N1CCC2(CCN(Cc3ccsc3)C2)CC1", "Leishmania in macrophages": 7.588, "Toxoplasma": 3.965}
{"compound": "O=C(O)C(F)(F)F.O=C(O)C(F)(F)F.[H][C@@]12COC[C@]1(CNC(=O)c1cccn1C)CN(Cc1cccc(C)n1)C2", "Leishmania in macrophages": 17.15, "Toxoplasma": -0.5351}
{"compound": "Cc1ccn(-c2ccccc2NCc2cccnc2C)n1", "Leishmania in macrophages": 10.2, "Toxoplasma": -1.752}
{"compound": "COCCN(C)C(C(=O)O)c1ccc(F)c(Cl)c1", "stereo": "centres unmarked", "Leishmania in macrophages": 1.428, "Toxoplasma": -13.39}
{"compound": "Cc1n[nH]c(C)c1C1COCCN1c1ncnc2sccc12", "stereo": "centres unmarked", "Leishmania in macrophages": 14.87, "Toxoplasma": -6.977}
{"compound": "O=C(O)c1ccc(CCNC(=O)C2(O)Cc3ccccc3C2)cc1", "Leishmania in macrophages": 15.76, "Toxoplasma": -0.1355}
{"compound": "CN(C)C(=O)Cc1nc(CN2CCn3c(nnc3C3CC3)C2)cs1", "Leishmania in macrophages": 12.88, "Toxoplasma": -0.9693}
{"compound": "CN(Cc1noc(C2CC2)n1)C1CCN(Cc2ccccc2C#N)C1", "stereo": "centres unmarked", "Leishmania in macrophages": 8.869, "Toxoplasma": 2.644}
{"compound": "Cc1nc(C2CCCN(C(=O)c3ccco3)C2)no1", "stereo": "centres unmarked", "Leishmania in macrophages": -18.96, "Toxoplasma": 3.656}
{"compound": "CCCNC(=O)C1CCN(CC(O)c2ccccc2)CC1", "stereo": "centres unmarked", "Leishmania in macrophages": 2.511, "Toxoplasma": -0.4965}
{"compound": "CC(=O)N1CCCC1c1ccc(Br)cn1", "stereo": "centres unmarked", "Leishmania in macrophages": 21.56, "Toxoplasma": 12.98}
{"compound": "CCC(=O)N1CCN(C(=O)NC2CCc3ccccc3C2)CC1", "stereo": "centres unmarked", "Leishmania in macrophages": 3.805, "Toxoplasma": -10.39}
{"compound": "Brc1cnc(NCCCOC2CCOCC2)nc1", "Leishmania in macrophages": -51.3, "Toxoplasma": -13}
{"compound": "Cn1ccnc1CN(Cc1ccccn1)Cc1ccccc1Cl.O=C(O)CC(O)(CC(=O)O)C(=O)O", "Leishmania in macrophages": 10.71}
{"compound": "CSCc1cccc(S(=O)(=O)NCCCO)c1", "Leishmania in macrophages": -4.528, "Toxoplasma": 9.239}
{"compound": "CCOCC1CN(Cc2ccncc2)Cc2nn(C)cc21.O=C(O)C(F)(F)F.O=C(O)C(F)(F)F", "stereo": "centres unmarked", "Leishmania in macrophages": 26.64, "Toxoplasma": 4.578}
{"compound": "Cc1c(NCc2ccccc2C#N)cccc1S(=O)(=O)NC1CC1", "Leishmania in macrophages": 13.38, "Toxoplasma": 16.75}
{"compound": "COc1cc(C)sc1C(=O)N1CCCC(n2nc(C)nc2C)C1", "stereo": "centres unmarked", "Leishmania in macrophages": 11.68, "Toxoplasma": -0.7952}
{"compound": "Cc1noc(C)c1CN1Cc2cnn(C)c2C(COCC2CC2)C1.O=C(O)C(F)(F)F.O=C(O)C(F)(F)F", "stereo": "centres unmarked", "Leishmania in macrophages": 37.31, "Toxoplasma": 16.82}
{"compound": "CCCN1CCC(N2CCC(Cn3cc(CC(C)O)nn3)CC2)CC1", "stereo": "centres unmarked", "Leishmania in macrophages": -2.626, "Toxoplasma": 4.888}
{"compound": "CN(CC(=O)NC(c1ccc(F)cc1)C(F)(F)F)S(C)(=O)=O", "stereo": "centres unmarked", "Leishmania in macrophages": 34.25, "Toxoplasma": -2.596}

The last 2 entries again:

{"compound": "CCCN1CCC(N2CCC(Cn3cc(CC(C)O)nn3)CC2)CC1", "stereo": "centres unmarked", "Leishmania in macrophages": -2.626, "Toxoplasma": 4.888}
{"compound": "CN(CC(=O)NC(c1ccc(F)cc1)C(F)(F)F)S(C)(=O)=O", "stereo": "centres unmarked", "Leishmania in macrophages": 34.25, "Toxoplasma": -2.596}